Screen size: about 360,000 compounds; about 7,500 (2.1%) were called active. This list was built around the results that the source calls inconclusive (neither active nor inactive); the mix of calls is not that of the screen. The call rests on the fitted dose curve; in most records, active means well fitted inhibition curve with a large enough effect; inconclusive means small, poorly fitted or top-dose-only effect, or effect the other way; inactive means flat fitted curve, though single readings scatter. Where the call is inconclusive, the potency comes from a doubtful curve fit.
Experiment: Nrf2 qHTS screen for inhibitors; further: nearly all actives have a fitted effect of over 60% in size
Details: A549 ARE-Fluc reporter, luciferase luminescence, 18-24 h; activity change, negative = inhibition: at 46 µM (top of the series)
In short: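 A549 ARE_Fluc cells (5000/well, 5% FBS OPTI-MEM) pre-incubated 2 h, then treated with compounds 18-24 h at 37C/5% CO2 in concentration-response. CellTiter-Fluor viability read first; BugLite luciferase luminescence after 15 min at room temperature gives Nrf2 activity.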
For `CCOCCCNC(=O)c1cc2c(s1)-c1ccccc1SC2`, the Potency was inconclusive: 14.6 µM [falling, partial curve, poor fit]. In the case of `Cc1ccc2nc(-c3cccc(N)c3)[nH]c2c1`, the Potency is reported as inconclusive: 0.231 µM [activator, full curve, poor fit]. In the case of `COc1cccc(OC)c1C(=O)N1CCN(Cc2ccc3c(c2)OCO3)CC1`, the “activity change, negative = inhibition” value is reported as inactive: 9.25%. In the case of `COC(=O)c1ccccc1NC(=O)c1ccc(-c2nc(CSc3ccc(C)cc3)c(C)o2)cc1`, the Potency is reported as inconclusive: 29.1 µM [activator, single point]. With `N=c1c2c(-c3ccccc3)c(-c3ccccc3)n(Cc3ccccc3)c2ncn1CCCn1ccnc1` the Potency was inconclusive: 18.4 µM [falling, single point]. In the case of `COc1ccc(/C=C/C(=O)c2ccc3c4c(cccc24)CC3)cc1OC`, the Potency is reported as active: 18.4 µM. For `CC(C)Cn1c(SCC(=O)Nc2cccc(S(N)(=O)=O)c2)nc2ccccc2c1=O`, the Potency was active: 20.6 µM. For `O=C(Nc1cccnc1)c1ccc(Cl)c(S(=O)(=O)N2CCCC2)c1`, the Potency was inconclusive: 32.6 µM [falling, single point]. In the case of `C=CCOc1ccc(C(=O)NC2CCCCC2)cc1`, the Potency is reported as inconclusive: 2.59 µM [activator, partial curve, poor fit]. In the case of `C/C(=N\NS(=O)(=O)c1ccccc1)c1cccc(NC(=O)c2cccc(Cl)c2)c1`, the Potency is reported as inconclusive: 13 µM [falling, partial curve, poor fit]. With `COc1ccc(CCNC(=O)c2cn(C)c3ccc(S(=O)(=O)N4CCOCC4)cc3c2=O)cc1OC` the Potency was inconclusive: 29.1 µM [activator, single point]. With `COc1ccccc1-c1nnc(NC(=O)CCS(=O)(=O)c2ccccc2)o1` the “activity change, negative = inhibition” value was inactive: -12.9%. For `COc1ccc(OCCC(=O)NCC23CC4CC(CC(C4)C2)C3)cc1`, the Potency was inconclusive: 2.59 µM [activator, full curve, poor fit]. With `CCOC(=O)c1ccc(NC(=O)CCCn2c(=O)c3cccn3c3cccnc32)cc1` the Potency was inconclusive: 13 µM [falling, partial curve, poor fit]. In the case of `Cc1ccc(NS(=O)(=O)c2ccc(Cl)c(NC(=S)NC(=O)C3CCCCC3)c2)cc1Cl`, the Potency is reported as inconclusive: 25.9 µM [falling, single point]. For `FC(F)Oc1ccc(NC(=S)N2CCc3ccccc32)cc1`, the Potency was inconclusive: 2.31 µM [activator, full curve, poor fit]. With `C=CCN(CC=C)C(=O)c1ccc2nc(Cc3ccc(OC)c(OC)c3)oc2c1` the Potency was inconclusive: 29.1 µM [falling, single point]. With `Cc1cccc(Cn2c(SCc3ccc(C(=O)NC4CCCC4)cc3)nc3cccnc32)c1` the Potency was inconclusive: 29.1 µM [falling, single point]. In the case of `CC[C@]12c3[nH]c4ccc(Cl)cc4c3CCN1C(=O)[C@@H](CC(=O)NCCN1CCOCC1)C[C@@H]2C(=O)N1CCN(C(=O)C2CC2)CC1`, the “activity change, negative = inhibition” value is reported as inactive: 14.3%. In the case of `Clc1ccc(-n2ncc3c(NCCCn4ccnc4)ncnc32)cc1`, the Potency is reported as inconclusive: 10.3 µM [activator, partial curve]. In the case of `CCOC(=O)C1=C(C)NC(=S)NC1c1ccc(-c2cccc(Cl)c2C)o1` (configuration not stated), the Potency is reported as inconclusive: 11.6 µM [falling, partial curve]. In the case of `Nc1ccc(C(=O)Nc2ccc(OC(F)(F)C(F)F)c(NC(=O)c3ccc(N)cc3)c2)cc1`, the “activity change, negative = inhibition” value is reported as inactive: -8.1%. In the case of `CSc1nc2sc3c(c2c(=O)n1C)CCC(C)C3` (configuration not stated), the Potency is reported as inconclusive: 14.6 µM [activator, partial curve]. In the case of `CN(Cc1ccon1)Cc1cn[nH]c1-c1ccc(-c2ccccc2)cc1`, the Potency is reported as inconclusive: 29.1 µM [activator, single point]. For `COc1cc(OC)c(C(=O)Nc2ccc(C(=O)c3ccccc3)cc2)cc1OC`, the Potency was inconclusive: 4.11 µM [falling, partial curve, poor fit]. With `O=Cc1c(-c2ccc(Cl)cc2)oc2ccc(O)cc12` the Potency was inconclusive: 29.1 µM [activator, single point]. In the case of `Cc1ccc(C)c(N2CCN(C(=O)CCc3nc(-c4ccccc4)no3)CC2)c1`, the Potency is reported as inconclusive: 9.2 µM [activator, partial curve, poor fit]. For `Cc1cccc(N2CCN(C(=O)CNC(=O)c3ccccc3)CC2)c1C`, the Potency was inconclusive: 29.1 µM [falling, single point]. With `O=C(Cc1cccs1)N1CCC(c2nc3c(nnn3Cc3ccccc3Cl)c(=O)[nH]2)CC1` the Potency was inconclusive: 29.1 µM [falling, single point]. In the case of `Cc1ccc(-n2nc3c(=O)n(CC(=O)NCc4ccccc4)nc(C)c3c2C)cc1`, the Potency is reported as inconclusive: 5.17 µM [falling, single point]. In the case of `Cc1ccc(-n2nnnc2SCC(=O)N2c3ccccc3NC(=O)C2(C)C)cc1`, the Potency is reported as inconclusive: 16.4 µM [falling, partial curve]. With `Cc1cc(C(=O)Nc2ccc(N3CCCCC3)cc2)no1` the Potency was inconclusive: 1.84 µM [activator, partial curve]. With `CCOC(=O)/C(=N\Nc1ccc(C(C)=O)cc1)c1csc(Nc2ccccc2)n1` the Potency was inconclusive: 29.1 µM [falling, single point]. For `CCCn1cc(NC(=O)c2cc(-c3ccccc3)on2)cn1`, the Potency was inconclusive: 29.1 µM [falling, single point]. In the case of `O=C(c1ccc2c(c1)N(Cc1ccc(Cl)cc1)C(=O)c1ccccc1S2=O)N1CCC(Cc2ccccc2)CC1` (configuration not stated), the Potency is reported as inconclusive: 23.1 µM [falling, single point]. With `CN(Cc1ccccc1)C(=O)c1cccc(NC(=O)Cc2cccc([N+](=O)[O-])c2)c1` the Potency was active: 16.4 µM. With `O=[N+]([O-])c1cc(S(=O)(=O)c2ccc(N3CCCCC3)c([N+](=O)[O-])c2)ccc1N1CCCCC1` the Potency was inconclusive: 4.11 µM [falling, partial curve]. In the case of `C=C(C)CSc1nnc(-c2ccc(OC)cc2)n1N`, the Potency is reported as inconclusive: 25.9 µM [activator, partial curve]. In the case of `O=C(NN1C(=O)/C(=C/c2ccc(O)c(O)c2)SC1=S)c1ccccc1`, the Potency is reported as inconclusive: 18.4 µM [activator, partial curve, poor fit]. In the case of `Cc1n[nH]c(C)c1N=Nc1ccc(Br)cc1`, the “activity change, negative = inhibition” value is reported as inactive: 10.5%. With `NC(=O)c1ccccc1NC(=O)c1ccc2c(c1)OCO2` the Potency was inconclusive: 13 µM [activator, partial curve]. With `CC(=O)c1cccc(NS(=O)(=O)c2ccc(-c3cnc(C4CC4)o3)cc2)c1` the Potency was inconclusive: 4.11 µM [falling, single point]. For `CNC(=O)CS(=O)(=O)CC(=O)Nc1cc(OC(C)C)c(Cl)cc1Cl`, the Potency was inconclusive: 6.51 µM [falling, single point]. In the case of `C=CCNc1oc(-c2ccc(OCC)cc2)nc1C#N`, the “activity change, negative = inhibition” value is reported as inactive: -29.6%. With `COc1cccc(C2C=C(Nc3ccccc3)C(=O)N2c2ccccc2)c1` (configuration not stated) the Potency was inconclusive: 14.6 µM [activator, partial curve]. For `Cc1cccc(C(=O)NCC(=O)N2CCN(c3ccccn3)CC2)c1`, the “activity change, negative = inhibition” value was inactive: 6.44%. In the case of `O=S(=O)(Nc1ccc(C(F)(F)F)cc1)c1ccc2c(c1)OCCO2`, the Potency is reported as inconclusive: 29.1 µM [falling, single point]. With `Cc1ccccc1OCC(=O)Nc1ccc2nc(SCC(N)=O)sc2c1` the Potency was inconclusive: 23.1 µM [falling, single point]. For `CC(C)(C)C(=O)Nc1cccc(-c2nc3ccccc3c(=O)o2)c1`, the Potency was inconclusive: 7.31 µM [falling, partial curve, poor fit]. In the case of `COC(=O)c1ccc(N2CCCCC2)c(NC(=O)c2ccco2)c1`, the Potency is reported as inconclusive: 13 µM [falling, partial curve, poor fit]. In the case of `CC(=O)c1ccc(N(C(=O)CNC(=O)c2ccco2)C(C(=O)NC2CCCC2)c2ccco2)cc1` (configuration not stated), the “activity change, negative = inhibition” value is reported as inactive: -0.881%. For `Cc1ccc(C2CC(C(F)(F)F)n3ncc(C(=O)NCc4ccco4)c3N2)cc1` (configuration not stated), the Potency was inconclusive: 6.51 µM [activator, single point]. For `CC(C)(C)c1ccc(C(=O)Nc2cccc3c(=O)[nH][nH]c(=O)c23)cc1`, the Potency was inconclusive: 0.164 µM [activator, full curve, poor fit]. With `CCCN1CCc2c(sc3nc(SC)n(-c4ccccc4)c(=O)c23)C1` the Potency was inconclusive: 23.1 µM [falling, partial curve, poor fit]. In the case of `CN1c2ccccc2C(=O)/C(=C\Nc2ccc(F)cc2)S1(=O)=O`, the Potency is reported as inconclusive: 29.1 µM [activator, single point]. For `O=C(NCCO)C(=O)Nc1cc2c3c(c1)CC(=O)N3CCC2`, the Potency was inconclusive: 32.6 µM [falling, single point]. In the case of `CCOC(=O)N1CCC(NC(=O)C2CCC(Cn3c(=O)[nH]c4ccccc4c3=O)CC2)CC1` (configuration not stated), the Potency is reported as inconclusive: 3.66 µM [falling, partial curve, poor fit]. With `Cc1nc(SCC(=O)NCCc2ccc(Cl)cc2)nc(C)c1C` the Potency was inconclusive: 29.1 µM [falling, single point]. In the case of `COc1ccc(C(=O)CSc2nnc(CNC(=O)c3ccco3)n2C)cc1`, the Potency is reported as inconclusive: 25.9 µM [falling, single point]. With `CN1CCN(c2ccc(CNS(=O)(=O)Cc3cccc(C(F)(F)F)c3)cc2)CC1` the Potency was inconclusive: 1.84 µM [falling, partial curve, poor fit]. With `COc1ccc(-c2nn(-c3ccccc3)cc2C(=O)NC(=S)N2CCOCC2)cc1OC` the Potency was inconclusive: 23.1 µM [falling, single point]. In the case of `CCOC(=O)c1ccc(NC(=O)Nc2ccc(OC)c(OC)c2)cc1`, the Potency is reported as inconclusive: 29.1 µM [falling, partial curve, poor fit].

— PubChem BioAssay AID504444 (National Center for Advancing Translational Sciences (NCATS), 2011)
On the % scale 0 is the no-effect control and ±100 the full control effect; potency means the concentration at half of the fitted maximal effect.
